According to PubChem BioAssay AID1347423 (Functional Genomics Laboratory (NCATS/FGL), 2020):
In all, about 52,000 sequences went through this assay and about 210 (0.4%) were called active.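 Rule for the calls: active = gene whose silencing raises cell survival under the drug, median off-target-corrected z-score across its silencing RNAs 2 or more; inactive = the rest.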 Some of the results follow.

Assay: Resistance to Poly (ADP-Ribose) Polymerase inhibitor: Gene Identification via Genome-wide siRNA Screen
Details: mouse BRCA2 R2336H ES cells, olaparib, CellTiter-Glo viability; active compounds read high
Method in brief: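 Mouse BRCA2 R2336H ES cells were reverse-transfected with siRNA (20 nM final), treated at 48 h with 500 nM olaparib, and read by CellTiter-Glo after 72 h. Scores: MAD-based z per siRNA, median per gene, seed off-target correction.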
With GCUUAUUUCGCCUAUGUGGTT against Slc24a2 the z-score was inactive: 0.471.
For CCCUGACCUAUUAAAAGAUTT against Cyp2b19, the z-score was inactive: -1.46.
For GCGCAUGUACAACACUCUATT against Abcf3, the z-score was inactive: -0.183.
For GGCCAUUUACUUGAAGAACTT against Lpin3, the z-score was inactive: -0.633.
With “GGCCGAAGAAGUCUUCGAUTT against 2310039E09Rik” the z-score was inactive: 0.19.
In the case of CCAAGUGAAGACACGAUUGTT against BB114266, the z-score is reported as inactive: -1.8.
With GGUGACCUCUCAGAGGUACTT against Kctd14 the z-score was inactive: -0.608.
In the case of GCGAUGAGACAGAUGUCGATT against Tcof1, the z-score is reported as inactive: -0.378.
For GCAACUUACUUGAUCUGAATT against Ap2b1, the z-score was inactive: -0.829.
For GGCGAACAACUGGAACGCATT against Snap25, the z-score was inactive: -0.163.
In the case of GGGAUUUCGAGAGACUAGCTT against AA959601, the z-score is reported as inactive: 0.955.
With GGAAAACUGGACAGAAAAUTT against Ndufb4 the z-score was inactive: 0.653.
For GCUUUUGCCAAGCAUAAUATT against Crot, the z-score was inactive: 1.09.
In the case of CCAUUCAGAUCCUCUUCACTT against Olfr48, the z-score is reported as inactive: -0.0453.
In the case of GGAAGCGUAGUAAAAAGAGTT against MGC28180, the z-score is reported as inactive: -0.738.
In the case of CCUAGCCAGCUAUGAUGUCTT against Mcoln1, the z-score is reported as inactive: 0.655.
For GCCAAGUUUGAACUUCGGATT against Elovl6, the z-score was inactive: 0.772.
With GGACAAGGAAUUAGGAGGATT against LOC626846 the z-score was inactive: 1.15.
With “GGAUCGUCUCCAAGUGGAUTT against 9130416B15” the z-score was inactive: 0.617.
For GGAGACUUUGAAAAAAGACTT against Mrps31, the z-score was inactive: -0.322.
With GCUGAUUUCCAAAGAUAAUTT against Glycam1 the z-score was inactive: 0.301.
With GCAACGACUCUAAUGACUUTT against Slc38a1 the z-score was inactive: -1.22.
With GGGACCCAGACAUUACAUGTT against Cldn6 the z-score was inactive: -0.265.
For GGAUAAGAAACACAAGAAGTT against Srrm1, the z-score was inactive: -0.147.
In the case of “GGCUGCUACCAAGAGUCAATT against 2700029E10Rik”, the z-score is reported as inactive: 0.664.
For GAGCCAAAUCAGGAACAGCTT against Trim29, the z-score was inactive: 1.5.
With GGCAUUCAGGAGGACUAGUTT against Lzp-s the z-score was inactive: -1.12.
In the case of GGCACUUUUGAUUUCAGAUTT against Nrd1, the z-score is reported as inactive: 0.157.
In the case of CGAAGUGGUCAAGUUCUCUTT against Fbxo17, the z-score is reported as inactive: -1.01.
With GCGGACCUUGUCCUAUAACTT against Slc9a2 the z-score was inactive: -1.39.
With GGACAGAUUUUCACCAUUCTT against Slc1a4 the z-score was inactive: 0.0724.
For CCUUCUAUUUAUAAGACCUTT against Lrch4, the z-score was inactive: 0.217.
For GGACUCACUCCUUCCAUCATT against Pphln1, the z-score was inactive: -2.02.
In the case of GGUUAGUUCCUUAAAUUCCTT against BC016579, the z-score is reported as inactive: -0.122.
For CCAGAUCGGGAAAAAGGGUTT against Tsn, the z-score was inactive: 0.983.
For GGAGCUGAAAAUCCAGCUGTT against Sdsl, the z-score was inactive: 0.679.
With CGGCUUUGCACCAUACUUATT against Galnt12 the z-score was inactive: -0.813.
With GGAGAAGGAGCUGGAAACGTT against Cttn the z-score was inactive: -1.86.
With GCCACCGUAUAUUUUUAAUTT against Gats the z-score was inactive: 1.02.
With CCCUUUACAUUACUCUAGCTT against Olfr715 the z-score was inactive: -0.921.
In the case of GGGAAAUGUUGAUAAUAAGTT against Morf4l2, the z-score is reported as inactive: -0.869.
With “CCAUAUAGAUCAUCUGUUCTT against 4930470P17Rik” the z-score was inactive: -0.18.
For “GGAUAUGCUGAGGUGGUGGTT against 5730453I16Rik”, the z-score was inactive: 0.775.
With GGUUGGUCUCCUCUUCAUATT against Psmd10 the z-score was inactive: -0.561.
For GGAUUAAAUGCCUUGAAGGTT against Niban, the z-score was inactive: 0.624.
With GAAUAUCCGCACACAAAGCTT against Olfr1356 the z-score was inactive: 0.196.
With GCCAUUCACGACCCACUACTT against Olfr1095 the z-score was inactive: 0.865.
With GCGGUCAAAUGCAACAAACTT against Fabp5 the z-score was inactive: -0.133.
For GGUUGAGAAGUCUGUUAAUTT against Hsp105, the z-score was inactive: 0.345.
With GGUAUUUAGCCUUGCAUACTT against Sfrs8 the z-score was inactive: -0.483.
With GCAGAGAUACCUAUCAAAGTT against Angptl4 the z-score was inactive: -0.00897.
In the case of “GCACUCUCAUUCCUAUUGGTT against E130304D01”, the z-score is reported as inactive: -1.19.
With CGGGAAUAAGAUCUUUCUGTT against Zfp297 the z-score was inactive: 0.946.
